This is one part of the list.
B1: il2ra_site1_3nfp_normal_mot_HHH_b1_03753_af2_000000088_0001_41_54_H_._8822628e7dce7141ff94e8fdab707b8c_0001_1_af2_0001_0000200019_0000001_0 (protein)
chain: SEEEEEAEELLKRRLPPKAVEALRILAKAVKEGNPNAERRLRYDEEVAEKLGDEDVVRAIELLRK
B2: il2ra_site1_3nfp_sap_19_mot_HHH_b1_02637_af2_000000013_0001_1_18_H_._HHH_b2_02255_0001_0000600025_0000001_0_0001 (protein)
chain: DDEAFEAARLMRDPEFLRLILELIREELNVPPEEANQFLYELMQRAARGDPEAMRILAELAKEVK
B3: il2ra_site1_1z92_normal_mot_HHH_b1_04604_af2_000000029_0001_42_56_H_._HHH_b2_07020_af2_0001_0000300012_0000001_0 (protein)
chain: SSSSSSDVIELALRLARALRRGDEEEVQELLEELKRYAEERDNRAAREIAERIEKHLGSSSSSSS
B4: il2ra_site1_3nfp_normal_mot_HHH_b2_00128_000000255_0001_39_54_H_._HHH_b1_08068_0001_0000500021_0000001_0_af2pred_0001_af2pred (protein)
chain: SSSSSDREEEVEELLEEAKRIEDLQEASRVFREALKLALEARDPELRRLVEEVARELAGSSSSSS
B5: il2ra_site2_3nfp_normal_mot_HHH_b1_04960_000000149_0001_23_39_H_._HHH_b1_08457_0001_0000300025_0000001_0 (protein)
chain: SSSSDAEELVKRLEEELREAEEKGDEELLEELAFELFALAVDLQDQRLAAFAAELFIRLRSSSSS
B6: il2ra_site1_3nfp_normal_mot_HHH_b1_03014_af2_000000204_0001_43_57_H_._HHH_b1_04002_af2_0001_0000100001_0000001_0_af2pred_0001_af2pred_1 (protein)
chain: SSSSSDVEELIELLEELAHKVSERDRKFLEAVLRRVKRLLKRGDERRAEKAARSALRAASSSSSS
B7: il2ra_site1_3nfp_sap_13_mot_HHH_b1_03479_af2_000000099_0001_1_19_H_._HHH_b1_08236_af2_0001_0000200011_0000001_0_0001_af2pred_0001_af2pred (protein)
chain: SSSSSEAEKLFEKAARLAHEGNYEEAEEVLREALELAEERNSEALRKFLEAALRIVEARRSSSSS
B8: il2ra_site2_3nfp_sap_12_mot_HHH_b1_00660_af2_000000090_0001_40_57_H_._HHH_b2_05252_0001_0000300023_0000001_1_0001 (protein)
chain: SSSSSSDHEFYEEVVKLLKKALKIEDEEELRKVLEEAEELARELGSEVLRRAVEFTAKANSSSSS
B9: il2ra_site2_3nfp_normal_mot_0136b98644bc9a8eb58b95019b738ebb_0001_1_000000071_0001_1_13_H_._HHH_b2_00169_0001_0000500015_0000001_0 (protein)
chain: SSSSSEEREADRLLARAYELLLRGNPEEARRLLERAEELAEEAGDETLLKQIEWALKALENSSSS
B10: il2ra_site2_2erj_sap_25_mot_ca9fcc9ace360711d783d1260e4fbff1_0001_1_af2_000000007_0001_15_32_H_._7f39e2d7389de0c2f60e905c27398b6a_0001_1_af2_0001_0000400011_000 … (protein)
chain: SSSSSYEERVEELLEEAEEAYREGDLHAVYRLAVEALHVASELGDQELIRLVAEFVEKISDSSSS
B11: il2ra_site1_1z92_normal_mot_c9a8daa1dfea21d1414aecde54be4f54_0001_1_af2_000000024_0001_32_46_H_._a445c54e3280ddb545be3b99cff61ffd_0001_1_af2_0001_0000100005_000 … (protein)
chain: SLEEVEEELKKLVNDPKAEKIIRVVVELAKEAQAPPELLLRDLERTAKLLGDEELEEAVKELLRK
B12: il2ra_site2_3nfp_normal_mot_HHH_b2_04230_000000235_0001_39_52_H_._HHH_b1_07298_0001_0000100007_0000001_0_af2pred_0001_af2pred (protein)
chain: SSSSDYEEEVKRLLEELRELLEEGDEEKFRKLLAEVSELIYENNDSELYIELAEIVFEFENSSSS
B13: il2ra_site1_2b5i_sap_17_mot_HHH_b2_07052_af2_000000021_0001_1_15_H_._HHH_b2_07811_0001_0000200026_0000001_0_0001_af2pred_0001_af2pred_1 (protein)
chain: SSSSDEELKELDELYHEASELWRRGNPEEAKRVLEEARKLAEELGDERAAKEIEFILRRASSSSS
B14: il2ra_site1_3nfp_sap_19_mot_HHH_b1_02247_af2_000000083_0001_41_56_H_._819758749a7565068ab34538b75d2992_0001_1_af2_0001_0000900039_0000001_0_0001 (protein)
chain: SSSSDEEAEEFWRLIREAIEAQKEGDEELAKELAELLEELAKERNDESAAKAVEELLKALKSSSS
B15: il2ra_site1_1z92_normal_mot_HHH_b2_00494_000000030_0001_41_54_H_._0a28df53656836c8faf163f96bad2529_0001_1_0001_0000200039_0000001_1 (protein)
chain: SYLELLVELVKRISPETAEDVEEYIKFAKRSGLPPERILQRLLRLARDAGDEELTEIIEEVLEEH
B16: il2ra_site1_1z92_sap_15_mot_HHH_b1_03515_000000289_0001_1_19_H_._HHH_b2_03101_0001_0000100011_0000001_0_0001 (protein)
chain: STMEWMIRLAEELGNPEVAEALRELLKLLKEDPNNKELSHLLTLLAHLLQKDPEEVERLAEEALE
B17: il2ra_site2_2erj_normal_mot_HHH_b1_03107_000000098_0001_39_52_H_._HHH_b2_02929_0001_0000400028_0000001_0 (protein)
chain: SSSSSDTQELWERVAELLQEAAHIEDPEEAREVLEEARELAEEGNDPALERYVEYVRRDLSSSSS
B18: il2ra_site2_3nfp_sap_18_mot_HHH_b1_04175_000000186_0001_44_58_H_._c0f0c6b645b03e3acbc3a7421e1f7935_0001_1_0001_0000300049_0000001_1_0001_af2pred_0001_af2pred (protein)
chain: SSSSSEEEERVRELIEEAKELLENGNPEEAKRALAEAVDLAKEAGNEELLLELYEILLKLLSSSS
B19: il2ra_site1_1z92_normal_mot_22aa8d8ad8dce7f663ea8fa348a52261_0001_000000005_0001_37_51_H_._d42de0cc81f4e0b3186ba921eb477610_0001_af2_0001_0000200010_0000001_0 (protein)
chain: SEEVEKIQELLKELDTPEALTLLRILERLAETAGNPEFALEQLKFALERLGSPELLRLLEELEER
B20: il2ra_site1_2b5i_normal_mot_HHH_b2_04910_000000118_0001_1_19_H_._HHH_b1_08078_0001_0000200004_0000001_0_af2pred_dldesign_0_af2pred (protein)
chain: SSSSSEVGAEILRLVEEANRLYQAGKEEEAKKLLEEALKLAKENNLNRYKKFVEACLKSLSSSSS
B21: il2ra_site2_3nfp_sap_12_mot_HHH_b2_00729_000000274_0001_42_55_H_._HHH_b1_04317_0001_0000100001_0000001_0_0001 (protein)
chain: SSSSDKAEEYLRIVLELAEEALELGDEYAVKSTLHVAKLAAHSNRDEEVEKQLREIEEALSSSSS
B22: il2ra_site1_1z92_sap_19_mot_HHH_b1_02241_000000292_0001_1_14_H_._HHH_b2_00689_0001_0001100033_0000001_0_0001 (protein)
chain: PEFLERDFERTLEFGIPPKDVAFVLLEALRSAGIPPEEVEELVRKVLERLLGDPEEAERVLERAK
B23: il2ra_site2_3nfp_sap_27_mot_HHH_b1_02422_000000114_0001_42_59_H_._934a834d9b8b770824478def2ff2f329_0001_0001_0000400062_0000001_0_0001 (protein)
chain: SSSDESEEIFEEAEKELRRLLEEGDRREASELTIEALRKLKELGDDELVLKLYAILAEALLSSSS
B24: il2ra_site2_3nfp_normal_mot_HHH_b1_05628_af2_000000064_0001_19_35_H_._HHH_b2_05903_af2_0001_0000800026_0000001_0 (protein)
chain: SSSSDEEEEELEELLKELRKAVEEGDEEKVEQLASRIALLAFELNDFEAFAEASELMRELISSSS
B25: il2ra_site2_2erj_sap_13_mot_HHH_b2_03493_000000046_0001_40_57_H_._HHH_b2_04319_0001_0000500045_0000001_0_0001_af2pred_0001_af2pred (protein)
chain: SSSSSSSEVEEEVERLLEEAERTPDPRRANNLLVRALFLAQKNNNDELLELVERVAEELSSSSSS
B26: il2ra_site2_2erj_normal_mot_HHH_b1_03609_af2_000000077_0001_42_55_H_._HHH_b1_00950_0001_0000200006_0000001_1 (protein)
chain: SSSSDVEELLEEAREATEEGDREAVEKLLSEASILAFRKNDFELWSLVSEVARELFRLLASSSSS
B27: il2ra_site2_3nfp_normal_mot_HHH_b2_07840_000000026_0001_18_34_H_._HHH_b1_07570_0001_0000600040_0000001_0 (protein)
chain: SSSSDEELEELLEEIEEALKNNDPEKVQRLLQEVTNLAFRRNDHEIFAAIIDLAELLAKLRSSSS
B28: il2ra_site1_3nfp_normal_mot_HHH_b1_04285_000000000_0001_1_16_H_._HHH_b2_05445_0001_0000200005_0000001_1_af2pred_0001_af2pred (protein)
chain: SSSSDREHLERVLELLRRLARVSEEEAKELLEEAQELAEEANDPALKKLVERFARVVRRTSSSSS
B29: il2ra_site2_3nfp_sap_29_mot_2fddaf487ee4b636a798e6d487813806_0001_000000215_0001_37_52_H_._6f585245ea955156d935feb295d12df0_0001_0001_0000500042_0000001_0_0001 (protein)
chain: SSSSKAEEYLEFALEALQRAVEEGDPEFVEKLEHIIRVVVETNNDEEAERLLEEILRRFEESSSS
B30: il2ra_site2_3nfp_normal_mot_HHH_b2_06320_000000197_0001_39_53_H_._HHH_b1_05126_af2_0001_0000500027_0000001_0 (protein)
chain: SSSSSSDVEELLKQIEELYKEGNEEEVRRLFAEILNEAFELRDHELFALLNELAEKLASSSSSSS
B31: il2ra_site1_2b5i_normal_mot_HHH_b2_04910_000000118_0001_1_19_H_._HHH_b1_07584_af2_0001_0000100006_0000001_0 (protein)
chain: SSSSSSAAEIFQELFREADELDRNGNPEEAQKVLEELLELLRELGNPWLVRSVEIALSDFSSSSS
B32: il2ra_site2_2erj_sap_18_mot_HHH_b2_05264_af2_000000057_0001_44_57_H_._HHH_b2_04770_0001_0000200005_0000001_0_0001_af2pred_0001_1_af2pred_swapped (protein)
chain: SSSSSSDLEERVEKLLEEAKEIKDLQEALKLLQEASELAAELDDDELLELVDRVLQELSSSSSSS
B33: il2ra_site2_3nfp_sap_23_mot_HHH_b2_08245_000000023_0001_41_55_H_._HHH_b2_01389_0001_0000100012_0000001_0_0001 (protein)
chain: SSSSKAHEYLRVALELAKLALEEGDPEVAREIAETALQAAESANDPELFEEIEELLEEIEGSSSS
B34: il2ra_site1_1z92_normal_mot_HHH_b2_00385_000000257_0001_1_19_H_._HHH_b1_07316_0001_0000100006_0000001_0 (protein)
chain: SSSSSWHEEILESLERSLRRLLEEGNEKSLEKALEFLEKAAKENNDEEALEFVEELKERLSSSSS
B35: il2ra_site2_2erj_sap_11_mot_HHH_b2_02572_000000148_0001_42_59_H_._HHH_b2_02950_af2_0001_0000200009_0000001_0_0001 (protein)
chain: SSSSDEEAARLALEVTEELLRLWEEGNPEEVEKLAEEAERRLEELGSPNLARFIELALRDLSSSS
B36: il2ra_site1_2b5i_sap_9_mot_HHH_b2_00231_000000175_0001_20_36_H_._HHH_b2_06598_af2_0001_0000300021_0000001_0_0001_af2pred_dldesign_0_af2pred (protein)
chain: SSSSSDPYDEVIRLFKEAQKLWREGKKEEAKEVLEKALEVAKKLKDDVIVAELERLLELLSSSSS
B37: il2ra_site2_3nfp_sap_9_mot_HHH_b2_00729_000000274_0001_42_55_H_._HHH_b1_06795_af2_0002_0000100002_0000001_0_0001 (protein)
chain: SSSSSESEEYLRAALLLLELAIEHGDEHAFESTLEAVRLAAESNNDEEVEKRVEELEKEFKSSSS

Target: il2ra, P01589
Assay: yeast display titration

Apparent Kd, inactive:
B1 no binding seen
B2 no binding seen
B3 no binding seen
B4 no binding seen
B5 no binding seen
B6 no binding seen
B7 no binding seen
B8 no binding seen
B9 no binding seen
B10 no binding seen
B11 no binding seen
B12 no binding seen
B13 no binding seen
B14 no binding seen
B15 no binding seen
B16 no binding seen
B17 no binding seen
B18 no binding seen
B19 no binding seen
B20 no binding seen
B21 no binding seen
B22 no binding seen
B23 no binding seen
B24 no binding seen
B25 no binding seen
B26 no binding seen
B27 no binding seen
B28 no binding seen
B29 no binding seen
B30 no binding seen
B31 no binding seen
B32 no binding seen
B33 no binding seen
B34 no binding seen
B35 no binding seen
B36 no binding seen
B37 no binding seen

At a glance, some entries already given.
Apparent Kd, inactive:
B5 no binding seen
B6 no binding seen
